# Source: EP4748864A1, “POLYMERIZATION INITIATOR OR PHOTOSENSITIZER, POLYMERIZATION INITIATION COMPOSITION, AND METHOD FOR PRODUCING RESIN” (Miyoshi Oil & Fat Co., Ltd., priority 2023, dated 2025)
# Some of these results come from one statement about several compounds together. At least one compound was matched to its structure with a doubt left.
# Assay: Solubility of component (A) in monomers and solvents, visual observation
# Assay type: physicochemical
# Method: The components (A), A-1 to A-4 and A-9 to A-12, (0.1 g) was added to butyl acrylate (1.0 g) or toluene (1.0 g), and the resulting mixture was stirred. The appearance of the mixture was visually observed, and the solubility was evaluated as follows (Table 5).
# • ⊚: dissolved transparently • ∘: dissolved almost transparently, but turbidity was observed • △: not dissolved
smiles,measurement,setting,value
"Cc1cc(C(C)(C)C)ccc1Sc1ccc(C(=O)c2ccc(Sc3ccc(C(C)(C)C)cc3C)cc2)cc1 [A-9, 4,4'-Dithio(4-tert-butyl-2-methylphenyl)benzophenone]","solubility in butyl acrylate and toluene, result in words",0.1 g in butyl acrylate (1.0 g) or toluene (1.0 g),good solubility
same,"solubility in toluene, result in words",0.1 g in toluene (1.0 g),good solubility
